Test results reported in PubChem BioAssay AID540256 (National Center for Advancing Translational Sciences (NCATS), 2011).
In all, about 300,000 compounds went through this assay and about 3,700 (1.2%) were called active. Inconclusive means that the source gave no clear call. Such entries were picked first, then a sample of the others. The call rests on the fitted dose curve; tested in HEK293 cells. A potency beside an inconclusive call is a rough fit, not a confirmed value.

test: qHTS for Inhibitors of binding or entry into cells for Lassa Virus; conditions: Lassa virus pseudotype entry inhibition, cell reporter; series mostly up to 37.9 µM; further: nearly all actives have a fitted effect of over 50% in size
Potency means the concentration at half of the fitted maximal effect.

| SMILES | Potency |
| --- | --- |
| CC(C)(C)C(=O)O/N=C1\CCS(=O)(=O)c2sccc21 | inconclusive: 0.562 µM [inhibitor, single point] |
| Cc1ccc(C2CN(C)C3(C(=O)Nc4ccccc43)C23COc2ccccc2C3=O)cc1 (stereo not given) | inactive |
| Cc1cc(C)cc(Nc2nc(-c3ccc(S(=O)(=O)N4CCCC4)cc3)cs2)c1 | inconclusive: 23.1 µM [inhibitor, partial curve] |
| CCCc1nn2c(=O)cc(COC(=O)c3ccccc3NC(=O)c3cccs3)nc2s1 | inactive |
| CSC1=NCCN1C(=O)c1ccc2c(c1)OCO2 | inconclusive: 29.1 µM [inhibitor, single point] |
| CCc1ccc(CNC(=O)C2Cc3cc(S(=O)(=O)N4CCCCCC4)ccc3N2C(C)=O)cc1 (stereo not given) | inactive |
| CCCn1c2ccccc2c2cnn(CC(=O)NCCCOC)c(=O)c21 | inconclusive: 7.08 µM [inhibitor, single point] |
| COc1ccccc1Nc1nnc(SCC(=O)c2cc(C)n(CC3CCCO3)c2C)s1 (stereo not given) | inactive |
| COCC1CCCN(Cc2cn(-c3ccccc3)nc2-c2ccc3c(c2)OCO3)C1 (stereo not given) | inconclusive: 10 µM [activator, partial curve, poor fit] |
| COc1ccc(/C=N/NC(=O)C2CCN(c3ncc(C(F)(F)F)cc3Cl)CC2)cc1 | inconclusive: 2.91 µM [inhibitor, full curve] |
| CCOc1ccc(-n2c(=O)c3c(C)c(C)sc3n(CC(=O)N(CC)Cc3ccccc3)c2=O)cc1 | inconclusive: 7.08 µM [inhibitor, full curve, poor fit] |
| CC1(C)OC2CC3C4CC(F)C5=CC(=O)C=CC5(C)C4(F)C(O)CC3(C)C2(C(=O)CO)O1 (stereo not given) | inactive |
| CC(NC(=S)NC(=O)c1cccs1)c1ccccc1 (stereo not given) | inconclusive: 3.55 µM [inhibitor, full curve, poor fit] |
| O=C(C[n+]1cccc(NC(=O)c2ccccc2)c1)c1cccc([N+](=O)[O-])c1 | inactive |
| CC(C)(C)NC(=S)NNC(=O)[C@H]1C[C@@H]1c1ccccc1 | active: 0.891 µM |
| CC(=O)c1ccc(NC(=S)NCCc2ccccn2)cc1 | inconclusive: 25.9 µM [activator, single point] |
| Cc1nn(C(C)C(=O)N2CCN(c3ccc(Cl)cc3)CC2)c(=O)c2cc3occc3n12 (stereo not given) | inconclusive: 35.5 µM [inhibitor, single point] |
| COc1cc(/C=C2/C(=O)CNC2=O)ccc1O | inconclusive: 0.13 µM [inhibitor, full curve, poor fit] |
| Cc1ccc(S(=O)(=O)c2cn(Cc3cccc(C)c3)c3cc4c(cc3c2=O)OCO4)cc1 | inconclusive: 35.5 µM [inhibitor, single point] |
| COc1cc([N+](=O)[O-])ccc1NC(=O)CSc1nccn1C | inconclusive: 1 µM [activator, full curve, poor fit] |
| COc1ccc(C(=O)Oc2ccc3ccc(=O)oc3c2)cc1OC | inconclusive: 3.16 µM [inhibitor, partial curve, poor fit] |
| CC(CC(=O)Nc1ccc2c(c1)OCCO2)c1ccccc1 (stereo not given) | inconclusive: 20.6 µM [activator, partial curve, poor fit] |
| Cc1ccc(Cl)cc1NC(=O)c1oc2ccc(S(=O)(=O)N(C)C3CCCCC3)cc2c1C | inactive |

| SMILES | Potency |
| --- | --- |
| CCOC(=O)Cc1csc(NC(=O)CSc2nnc(C3CC3)n2C)n1 | inconclusive: 20 µM [inhibitor, partial curve, poor fit] |
| CC1CN(c2cc(-c3ccccc3)c3ccccc3n2)CC(C)O1 (stereo not given) | inconclusive: 0.0891 µM [inhibitor, full curve, poor fit] |
| COc1ccc(-c2noc(CCCOc3ccc(Cl)cc3Cl)n2)cc1 | inconclusive: 0.112 µM [activator, full curve, poor fit] |
| O=C(NC(Cc1c[nH]c2ccccc12)C(=O)Nc1ccc(OC(F)(F)F)cc1)c1cccs1 (stereo not given) | active: 2.06 µM |
| CCCCCCOc1ccc(OC(=O)c2ccncc2)cc1 | inactive |
| Cc1ccc(-c2cc(=O)c3ccccc3[nH]2)cc1 | inconclusive: 1.3 µM [activator, partial curve, poor fit] |
| NC(=O)c1c(NC(=O)CSc2nnc(-c3ccco3)n2-c2ccccc2)sc2c1CCC2 | inactive |
| O=C(/C=C/Nc1ccccc1Br)c1ccccn1 | active: 1.12 µM |
| O=C(NCCN1CCCCC1)c1ccc(Oc2cc(Cl)cc(Cl)c2)o1 | inconclusive: 14.1 µM [inhibitor, single point] |
| O=C(Nc1ccc(Cl)c(S(=O)(=O)N2CCOCC2)c1)C1=NN(c2ccccc2)C(=O)CC1 | inconclusive: 1 µM [inhibitor, full curve] |
| CCC(C)Nc1nc(N)c([N+](=O)[O-])c(N2CCCCCC2)n1 (stereo not given) | inconclusive: 35.5 µM [inhibitor, single point] |
| CCc1ccc(-n2c(=O)c3c4c(sc3n(CC(=O)N3CCC(C)CC3)c2=O)CCC4)cc1 | inactive |
| CCc1nonc1NC(=O)c1oc2ccc(Br)cc2c1C | inactive |
| COc1ccc(Cn2c(=S)[nH]c3ccccc32)cc1 | inactive |
| Nc1nc(CN2CCN(c3ccccn3)CC2)nc(Nc2ccc(F)cc2)n1 | inconclusive: 29.1 µM [inhibitor, single point] |
| Cc1c(Cl)cccc1NC(=S)NCCC(c1ccccc1)c1ccccc1 | inconclusive: 29.1 µM [inhibitor, single point] |
| O=C(c1ccccc1)c1sc(N2CCCCCC2)nc1-c1ccccc1 | inactive |
| Cc1nnc(N/N=C/c2ccc(-c3ccc(Br)cc3)o2)n1N | inactive |
| COc1ccc(-n2nnnc2-c2cn(C)nc2C(F)(F)F)cc1 | inactive |
| O=C(N/N=C/c1ccc(OCCCF)cc1)c1ccc(C(F)(F)F)cc1 | inconclusive: 4.47 µM [inhibitor, full curve, poor fit] |
| CCOC(=O)C(O)(c1ccc(N(C)C(=O)c2ccc(Cl)c(Cl)c2)cc1)C(F)(F)F (stereo not given) | inconclusive: 11.6 µM [inhibitor, partial curve] |
| CCOc1ccc(Br)cc1S(=O)(=O)Nc1ccc(Cl)c(S(=O)(=O)N(CC)c2ccccc2)c1 | inactive |

Two entries picked at random from the list so far, as already listed:

| SMILES | Potency |
| --- | --- |
| COCC1CCCN(Cc2cn(-c3ccccc3)nc2-c2ccc3c(c2)OCO3)C1 (stereo not given) | inconclusive: 10 µM [activator, partial curve, poor fit] |
| COc1ccc(Cn2c(=S)[nH]c3ccccc32)cc1 | inactive |
